Results as given in US20240390334A1, “COMPOSITIONS AND METHODS FOR MITIGATING ALCOHOL LIVER DISEASE” (Research Foundation of the City University of New York, priority 2021, published 2024).

Tested on: genes involved in de novo lipogenesis and fatty acid β-oxidation
Experiment: RNA-seq of hepatic transcripts of lipid metabolism genes in liquid ethanol diet model
Format: in vivo, mouse (male C57BL/6J)
Description: Liquid Ethanol Diet. Male C57BL/6J mice (8-9-weeks-old) (n=30) were purchased from Jackson Laboratory. Animals were housed in standard cages with 2-mice per cage and fed a standard vivarium chow (rodent diet #2014, Harlan-Teklad, Madison, WI). After acclimation to liquid feeding, mice were switched to the Lieber-DeCarli-liquid alcohol diet for 3 weeks using the following groups: 1) Control diet-fed mice (aka Pair-fed (PF), n=6), 2) Pair-fed mice+RARβ2 specific agonist AC261066 (Tocris #4046), at 10 mg/kg/day [Pair-fed+AC261, (n=4)] (PF-AC), 3) Alcohol-treated (5% ethanol (EtOH) v/v plus vehicle [0.1% DMSO], n=10) (EtOH), and iv) 4) EtOH+AC261, [10 mg/kg/day], n=10)] (EtOH-AC).
The mechanism by which AC261066 functions in lipid metabolism, including de novo lipogenesis and fatty acid β-oxidation in the liver, was assessed.

With `CCCCOCCOc1nc(-c2ccc(C(=O)O)c(F)c2)sc1C` [AC261066] the “hepatic mRNA level of CPT1-α” value (Pair-fed condition) was “increase” and the “hepatic mRNA levels of lipid metabolism genes, except CPT1-α” value (Pair-fed mice with vs without AC261066) was “did not significantly alter”.
